Paper PMC7765495
Results are given in words; binding and its absence hold for the method and conditions named. In cells and extracts the contact can be indirect. Some results given as binding are weak or reduced against the parent protein; the word gives no strength. For some of these results: Sequences can lack the tags named with a protein.

Amino acid sequences for entries named in this document (tags omitted).
UniProt Q15796: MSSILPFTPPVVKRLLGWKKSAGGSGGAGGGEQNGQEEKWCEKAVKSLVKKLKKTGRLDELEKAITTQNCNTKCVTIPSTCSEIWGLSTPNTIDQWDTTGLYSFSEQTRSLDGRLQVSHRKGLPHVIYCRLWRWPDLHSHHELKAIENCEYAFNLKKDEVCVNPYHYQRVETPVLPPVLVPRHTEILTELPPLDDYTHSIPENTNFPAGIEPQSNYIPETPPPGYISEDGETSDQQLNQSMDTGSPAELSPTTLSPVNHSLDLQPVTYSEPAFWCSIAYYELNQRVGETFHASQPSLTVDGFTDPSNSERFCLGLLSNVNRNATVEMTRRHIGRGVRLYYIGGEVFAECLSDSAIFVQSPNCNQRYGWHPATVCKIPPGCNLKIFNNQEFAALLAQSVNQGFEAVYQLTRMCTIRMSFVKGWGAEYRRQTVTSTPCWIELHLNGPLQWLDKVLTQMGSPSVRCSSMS

Columns and labels:
[1] = target: T1, STOX2, endogenous in human embryonic stem cells (human (endogenous in hESCs)) (UniProt Q9P2F5); assay: condition: only hESCs treated for 4 h with SB (inhibition of TGF-β signaling); co-IP; endogenous proteins; 2 mg of total protein from hESCs treated for 4 h with SB (inhibition of TGF-β signaling), incubated with 2 μg of STOX2 antibody (IgG as control); immunoblot for STOX2 and SMAD2
T1 sequence: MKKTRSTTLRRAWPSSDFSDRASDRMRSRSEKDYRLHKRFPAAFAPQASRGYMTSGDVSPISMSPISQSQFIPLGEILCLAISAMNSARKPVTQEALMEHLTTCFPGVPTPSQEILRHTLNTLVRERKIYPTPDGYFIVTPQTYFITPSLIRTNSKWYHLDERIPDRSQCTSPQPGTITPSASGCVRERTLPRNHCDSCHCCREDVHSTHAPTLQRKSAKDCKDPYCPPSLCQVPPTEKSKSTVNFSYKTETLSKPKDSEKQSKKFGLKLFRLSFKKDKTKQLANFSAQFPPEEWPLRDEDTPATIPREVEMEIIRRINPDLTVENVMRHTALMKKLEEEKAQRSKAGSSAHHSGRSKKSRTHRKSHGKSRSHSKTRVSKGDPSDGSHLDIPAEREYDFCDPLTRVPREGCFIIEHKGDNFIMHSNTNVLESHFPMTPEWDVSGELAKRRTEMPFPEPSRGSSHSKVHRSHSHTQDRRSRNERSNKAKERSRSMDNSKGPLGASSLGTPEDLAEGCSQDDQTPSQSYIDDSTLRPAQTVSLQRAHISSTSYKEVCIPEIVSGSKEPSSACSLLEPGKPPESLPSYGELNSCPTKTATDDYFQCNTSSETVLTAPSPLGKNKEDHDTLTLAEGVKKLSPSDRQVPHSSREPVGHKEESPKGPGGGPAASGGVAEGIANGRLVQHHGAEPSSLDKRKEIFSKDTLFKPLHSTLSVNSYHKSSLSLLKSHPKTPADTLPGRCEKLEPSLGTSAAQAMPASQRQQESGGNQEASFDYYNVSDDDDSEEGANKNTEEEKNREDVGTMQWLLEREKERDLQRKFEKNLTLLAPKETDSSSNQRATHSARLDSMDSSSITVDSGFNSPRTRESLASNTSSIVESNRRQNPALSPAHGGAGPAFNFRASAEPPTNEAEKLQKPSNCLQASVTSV

[2] = target: T1, STOX2, endogenous in human embryonic stem cells (human (endogenous in hESCs)); assay: co-IP; endogenous proteins; 2 mg of total protein from hESCs treated for 4 h with DMSO (solvent control), incubated with 2 μg of STOX2 antibody (IgG as control); immunoblot for STOX2 and SMAD2
[3] = target: T2, STOX2A, 3xFLAG-tagged (STOX2-FLAG), overexpressed in HEK293T cells (UniProt Q9P2F5); assay: co-IP; 293T cells transfected with STOX2 and SMAD2; lysis in TNTE buffer (50 mM Tris/HCl pH 7.6, 150 mM NaCl, 0.5% TritonX-100, 1 mM EDTA); STOX2-FLAG immunoprecipitated with FLAG antibody; immunoblot
T2 sequence: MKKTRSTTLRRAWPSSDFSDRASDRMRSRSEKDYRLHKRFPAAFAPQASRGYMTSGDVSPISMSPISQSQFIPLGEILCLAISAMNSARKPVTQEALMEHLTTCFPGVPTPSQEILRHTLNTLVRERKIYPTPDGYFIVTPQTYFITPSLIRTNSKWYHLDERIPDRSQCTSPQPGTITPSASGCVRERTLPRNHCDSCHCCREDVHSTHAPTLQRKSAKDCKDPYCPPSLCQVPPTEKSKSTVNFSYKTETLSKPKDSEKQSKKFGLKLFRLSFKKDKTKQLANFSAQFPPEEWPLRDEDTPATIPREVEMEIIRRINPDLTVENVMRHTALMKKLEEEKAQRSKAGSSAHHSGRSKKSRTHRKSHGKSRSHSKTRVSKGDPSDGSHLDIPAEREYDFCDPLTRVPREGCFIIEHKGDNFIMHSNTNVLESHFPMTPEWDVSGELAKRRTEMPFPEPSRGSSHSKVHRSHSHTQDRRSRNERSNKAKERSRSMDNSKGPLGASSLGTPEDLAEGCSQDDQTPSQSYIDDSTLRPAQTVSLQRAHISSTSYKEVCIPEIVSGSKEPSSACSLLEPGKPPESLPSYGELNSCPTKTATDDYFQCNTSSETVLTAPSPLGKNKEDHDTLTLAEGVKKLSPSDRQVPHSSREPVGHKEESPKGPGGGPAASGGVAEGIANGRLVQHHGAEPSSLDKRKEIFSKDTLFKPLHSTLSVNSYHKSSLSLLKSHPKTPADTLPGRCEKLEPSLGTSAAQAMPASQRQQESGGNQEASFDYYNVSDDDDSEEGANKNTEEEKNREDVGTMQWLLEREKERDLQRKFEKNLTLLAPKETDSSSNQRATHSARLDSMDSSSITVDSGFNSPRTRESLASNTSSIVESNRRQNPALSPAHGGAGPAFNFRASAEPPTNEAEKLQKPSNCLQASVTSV

[4] = target: SMAD2, HA-tagged (SMAD2-HA), overexpressed in HEK293T cells (UniProt Q15796); assay: co-IP; 293T cells transfected with STOX2 and SMAD2; lysis in TNTE buffer; SMAD2-HA immunoprecipitated with HA antibody; immunoblot

Molecule: SMAD2, endogenous in human embryonic stem cells (from UniProt Q15796 1-467)
- binding [1]: no binding
- binding [2]: binds

Molecule: SMAD2, HA-tagged (SMAD2-HA), overexpressed in HEK293T cells (from UniProt Q15796 1-467)
- binding [3]: binds

B1: STOX2A, 3xFLAG-tagged (STOX2-FLAG), overexpressed in HEK293T cells (protein, UniProt Q9P2F5 1-926)
chain: MKKTRSTTLRRAWPSSDFSDRASDRMRSRSEKDYRLHKRFPAAFAPQASRGYMTSGDVSPISMSPISQSQFIPLGEILCLAISAMNSARKPVTQEALMEHLTTCFPGVPTPSQEILRHTLNTLVRERKIYPTPDGYFIVTPQTYFITPSLIRTNSKWYHLDERIPDRSQCTSPQPGTITPSASGCVRERTLPRNHCDSCHCCREDVHSTHAPTLQRKSAKDCKDPYCPPSLCQVPPTEKSKSTVNFSYKTETLSKPKDSEKQSKKFGLKLFRLSFKKDKTKQLANFSAQFPPEEWPLRDEDTPATIPREVEMEIIRRINPDLTVENVMRHTALMKKLEEEKAQRSKAGSSAHHSGRSKKSRTHRKSHGKSRSHSKTRVSKGDPSDGSHLDIPAEREYDFCDPLTRVPREGCFIIEHKGDNFIMHSNTNVLESHFPMTPEWDVSGELAKRRTEMPFPEPSRGSSHSKVHRSHSHTQDRRSRNERSNKAKERSRSMDNSKGPLGASSLGTPEDLAEGCSQDDQTPSQSYIDDSTLRPAQTVSLQRAHISSTSYKEVCIPEIVSGSKEPSSACSLLEPGKPPESLPSYGELNSCPTKTATDDYFQCNTSSETVLTAPSPLGKNKEDHDTLTLAEGVKKLSPSDRQVPHSSREPVGHKEESPKGPGGGPAASGGVAEGIANGRLVQHHGAEPSSLDKRKEIFSKDTLFKPLHSTLSVNSYHKSSLSLLKSHPKTPADTLPGRCEKLEPSLGTSAAQAMPASQRQQESGGNQEASFDYYNVSDDDDSEEGANKNTEEEKNREDVGTMQWLLEREKERDLQRKFEKNLTLLAPKETDSSSNQRATHSARLDSMDSSSITVDSGFNSPRTRESLASNTSSIVESNRRQNPALSPAHGGAGPAFNFRASAEPPTNEAEKLQKPSNCLQASVTSV
- binding [4]: binds
